Results taken from US20170189504A1, “NOVEL PEPTIDES AND COMBINATION OF PEPTIDES FOR USE IN IMMUNOTHERAPY AGAINST VARIOUS CANCERS” (immatics biotechnologies GmbH, priority 2015, published 2017).
For some assays here: For expression read-outs the peptide stands for its source gene, whose mRNA was measured; the gene is not named for every peptide.

Key:
HLA-A*24 = assay: Identification and relative LC-MS quantitation of HLA-A*24-presented tumor-associated peptides on tissue samples (presentation profiles, Tables 14A, 14B, 16, FIG. 1); design: species or system human; key to Presentation score GC / Presentation score NSCLC / Presentation score PCA / Presentation score GB / Presentation score HCC / Presentation score RCC: specifically presented on tumors (++++); very highly over-presented on tumors compared to a panel of normal tissues (+++); highly over-presented on tumors compared to a panel of normal tissues (++); over-presented on tumors compared to a panel of normal tissues (+); conditions: for Presentation score HCC: hepatocellular carcinoma (N = 15) vs panel of normal tissues (N = 70); for Presentation score NSCLC: non-small cell lung cancer (N = 91) vs panel of normal tissues (N = 70); for Presentation score GB: glioblastoma (N = 18) vs panel of normal tissues (N = 70)
source genes (mRNA) [1] = assay: Gene and exon expression of source genes, TCGA tumor samples compared with normal tissue samples (Lonsdale, 2013) (Table 17); design: species or system human; conditions: for Over-expression category of source gene (target coverage), BLCA: BLCA = Bladder urothelial carcinoma (N = 408); for Over-expression category of source gene (target coverage), BRCA: BRCA = Breast cancer (N = 1104), tumors more than 2-fold above highest 75% percentile of normal tissues; for Over-expression category of source gene (target coverage), DLBC: DLBC = Lymphoid neoplasm diffuse large B-cell lymphoma (N = 48); for Over-expression category of source gene (target coverage), ESCA: ESCA = Esophageal cancer (N = 185); for Over-expression category of source gene (target coverage), GBM: GBM = Glioblastoma multiforme (N = 169); for Over-expression category of source gene (target coverage), KIRC: KIRC = Clear cell kidney carcinoma (N = 534); for Over-expression category of source gene (target coverage), KIRP: KIRP = Papillary kidney carcinoma (N = 291); for Over-expression category of source gene (target coverage), LAML: LAML = Acute Myeloid Leukemia (N = 173); for Over-expression category of source gene (target coverage), LGG: LGG = Lower grade glioma (N = 534); for Over-expression category of source gene (target coverage), LUAD: LUAD = Lung adenocarcinoma (N = 517); for Over-expression category of source gene (target coverage), OV: OV = Ovarian serous cystadenocarcinoma (N = 309); for Over-expression category of source gene (target coverage), SKCM: SKCM = Skin cutaneous melanoma (N = 473); for Over-expression category of source gene (target coverage), STAD: STAD = Stomach adenocarcinoma (N = 415)
source genes (mRNA) [2] = assay: Expression profiling of source genes by in-house RNASeq of tumor and normal tissues (Table 18, FIG. 2); design: species or system human; key: very highly over-expressed in tumors compared to a panel of normal tissues (+++); highly over-expressed in tumors compared to a panel of normal tissues (++); over-expressed in tumors compared to a panel of normal tissues (+); conditions: source gene of peptide; for Expression score BRCA: BRCA tumors vs panel of normal tissues; for Expression score OSCAR: esophageal cancer incl. gastric-esophageal junction (N = 11) vs panel of normal tissues; for Expression score NSCLC: non-small cell lung cancer (N = 11) vs panel of normal tissues; for Expression score OC: ovarian cancer (N = 12) vs panel of normal tissues; for Expression score PC: pancreatic cancer (N = 26) vs panel of normal tissues; for Expression score SCLC: small cell lung cancer (N = 10) vs panel of normal tissues
[3] = Table 14A, HLA-A*24-binding tumor-associated peptides, cancer entities on which the peptide was found presented

Substance	Presentation score HCC (HLA-A*24; HLA-A*24 peptides)	Presentation score NSCLC (HLA-A*24; HLA-A*24 peptides)	Peptide Presentation on cancer entities (HLA-A*24; [3])	Over-expression category of source gene (target coverage), BLCA (source genes (mRNA) [1]; same cutoff)	Over-expression category of source gene (target coverage), BRCA (source genes (mRNA) [1])	Over-expression category of source gene (target coverage), DLBC (source genes (mRNA) [1]; same cutoff)	Over-expression category of source gene (target coverage), ESCA (source genes (mRNA) [1]; same cutoff)	Over-expression category of source gene (target coverage), GBM (source genes (mRNA) [1]; same cutoff)	Over-expression category of source gene (target coverage), KIRC (source genes (mRNA) [1]; same cutoff)	Over-expression category of source gene (target coverage), KIRP (source genes (mRNA) [1]; same cutoff)	Over-expression category of source gene (target coverage), LAML (source genes (mRNA) [1]; same cutoff)	Over-expression category of source gene (target coverage), LGG (source genes (mRNA) [1]; same cutoff)	Over-expression category of source gene (target coverage), LUAD (source genes (mRNA) [1]; same cutoff)	Over-expression category of source gene (target coverage), OV (source genes (mRNA) [1]; same cutoff)	Over-expression category of source gene (target coverage), SKCM (source genes (mRNA) [1]; same cutoff)	Over-expression category of source gene (target coverage), STAD (source genes (mRNA) [1]; same cutoff)	Expression score BRCA (source genes (mRNA) [2])	Expression score OSCAR (source genes (mRNA) [2])	Expression score NSCLC (source genes (mRNA) [2])	Expression score OC (source genes (mRNA) [2])	further results
214: peptide found in USP18 (gene looked up) (LYLKLWNLI; listed as Homo sapiens) [compound 214]	++++	++++	NSCLC, HCC	A (>=50% of tumors above the cutoff)	A (>=50% of tumors above the cutoff)	B (>= 20% of tumors above the cutoff, but <50%)	B (>= 20% of tumors above the cutoff, but <50%)	B (>= 20% of tumors above the cutoff, but <50%)	B (>= 20% of tumors above the cutoff, but <50%)	B (>= 20% of tumors above the cutoff, but <50%)	A (>=50% of tumors above the cutoff)	A (>=50% of tumors above the cutoff)	A (>=50% of tumors above the cutoff)	A (>=50% of tumors above the cutoff)	A (>=50% of tumors above the cutoff)	B (>= 20% of tumors above the cutoff, but <50%)	++	++	+	+++	Over-expression category of source gene (target coverage), CHOL (source genes (mRNA) [1]; CHOL = Cholangiocarcinoma (N = 36), same cutoff): B (>= 20% of tumors above the cutoff, but <50%); Over-expression category of source gene (target coverage), COAD (source genes (mRNA) [1]; COAD = Colon and rectal adenocarcinoma (N = 462), same cutoff): A (>=50% of tumors above the cutoff); Over-expression category of source gene (target coverage), KICH (source genes (mRNA) [1]; KICH = Kidney chromophobe (N = 66), same cutoff): B (>= 20% of tumors above the cutoff, but <50%); Over-expression category of source gene (target coverage), LIHC (source genes (mRNA) [1]; LIHC = Liver hepatocellular carcinoma (N = 374), same cutoff): B (>= 20% of tumors above the cutoff, but <50%); Over-expression category of source gene (target coverage), LUSC (source genes (mRNA) [1]; LUSC = Lung squamous cell carcinoma (N = 503), same cutoff): A (>=50% of tumors above the cutoff); Over-expression category of source gene (target coverage), PAAD (source genes (mRNA) [1]; PAAD = Pancreatic ductal adenocarcinoma (N = 179), same cutoff): A (>=50% of tumors above the cutoff); Over-expression category of source gene (target coverage), PRAD (source genes (mRNA) [1]; PRAD = Prostate adenocarcinoma (N = 498), same cutoff): A (>=50% of tumors above the cutoff); Over-expression category of source gene (target coverage), READ (source genes (mRNA) [1]; READ = Colon and rectal adenocarcinoma (N = 167), same cutoff): A (>=50% of tumors above the cutoff); Over-expression category of source gene (target coverage), UCEC (source genes (mRNA) [1]; UCEC = Uterine corpus endometrial carcinoma (N = 546), same cutoff): A (>=50% of tumors above the cutoff); Expression score AML (source genes (mRNA) [2]; acute myeloid leukemia (N = 11) vs panel of normal tissues): +; Expression score PC (source genes (mRNA) [2]): +; Expression score SCLC (source genes (mRNA) [2]): +++; Expression score UBC (source genes (mRNA) [2]; urinary bladder cancer (N = 10) vs panel of normal tissues): +; Expression score UEC (source genes (mRNA) [2]; uterine cancer (N = 10) vs panel of normal tissues): +
216: peptide found in HEATR5A (gene looked up) (QYSSVFKSL; listed as Homo sapiens) [compound 216]			GB, GC		C (>=5% of tumors above the cutoff, but <20%)		B (>= 20% of tumors above the cutoff, but <50%)	C (>=5% of tumors above the cutoff, but <20%)			C (>=5% of tumors above the cutoff, but <20%)	B (>= 20% of tumors above the cutoff, but <50%)	C (>=5% of tumors above the cutoff, but <20%)		C (>=5% of tumors above the cutoff, but <20%)	C (>=5% of tumors above the cutoff, but <20%)					Peptide Presentation on cancer entities (HLA-A*24; HLA-A*24-binding peptides, additional cancer entities, GB = glioblastoma, HCC = hepatocellular carcinoma, NSCLC = non-small cell lung cancer, PCA = prostate cancer): NSCLC, HCC; Presentation score GC (HLA-A*24; HLA-A*24 peptides, gastric cancer (N = 44) vs panel of normal tissues (N = 70)): ++++; Presentation score GB (HLA-A*24; HLA-A*24 peptides): ++++; Expression score GB (source genes (mRNA) [2]; glioblastoma (N = 24) vs panel of normal tissues): +
223: peptide found in RNF213 (gene looked up) (KYIPYKYVI; listed as Homo sapiens) [compound 223]			NSCLC, HCC	C (>=5% of tumors above the cutoff, but <20%)	B (>= 20% of tumors above the cutoff, but <50%)	C (>=5% of tumors above the cutoff, but <20%)	A (>=50% of tumors above the cutoff)		B (>= 20% of tumors above the cutoff, but <50%)	B (>= 20% of tumors above the cutoff, but <50%)	A (>=50% of tumors above the cutoff)		C (>=5% of tumors above the cutoff, but <20%)	B (>= 20% of tumors above the cutoff, but <50%)	C (>=5% of tumors above the cutoff, but <20%)	A (>=50% of tumors above the cutoff)	+	+	+	++	Expression score NHL (source genes (mRNA) [2]; non-Hodgkin lymphoma (N = 10) vs panel of normal tissues): +; Expression score PC (source genes (mRNA) [2]): +; Expression score SCLC (source genes (mRNA) [2]): +
224: peptide found in SMG1 (gene looked up) (QYLENLEKL; listed as Homo sapiens) [compound 224]	+	+	GB, NSCLC, HCC		C (>=5% of tumors above the cutoff, but <20%)		C (>=5% of tumors above the cutoff, but <20%)				A (>=50% of tumors above the cutoff)										Presentation score GB (HLA-A*24; HLA-A*24 peptides): +; Expression score CLL (source genes (mRNA) [2]; chronic lymphocytic leukemia (N = 10) vs panel of normal tissues): +
